{
  "sequences": {"note": "Amino acid sequences for entries named in this document (tags omitted). A change or cut given only in a name is not applied to a line headed by its entry.", "UniProt P18054": "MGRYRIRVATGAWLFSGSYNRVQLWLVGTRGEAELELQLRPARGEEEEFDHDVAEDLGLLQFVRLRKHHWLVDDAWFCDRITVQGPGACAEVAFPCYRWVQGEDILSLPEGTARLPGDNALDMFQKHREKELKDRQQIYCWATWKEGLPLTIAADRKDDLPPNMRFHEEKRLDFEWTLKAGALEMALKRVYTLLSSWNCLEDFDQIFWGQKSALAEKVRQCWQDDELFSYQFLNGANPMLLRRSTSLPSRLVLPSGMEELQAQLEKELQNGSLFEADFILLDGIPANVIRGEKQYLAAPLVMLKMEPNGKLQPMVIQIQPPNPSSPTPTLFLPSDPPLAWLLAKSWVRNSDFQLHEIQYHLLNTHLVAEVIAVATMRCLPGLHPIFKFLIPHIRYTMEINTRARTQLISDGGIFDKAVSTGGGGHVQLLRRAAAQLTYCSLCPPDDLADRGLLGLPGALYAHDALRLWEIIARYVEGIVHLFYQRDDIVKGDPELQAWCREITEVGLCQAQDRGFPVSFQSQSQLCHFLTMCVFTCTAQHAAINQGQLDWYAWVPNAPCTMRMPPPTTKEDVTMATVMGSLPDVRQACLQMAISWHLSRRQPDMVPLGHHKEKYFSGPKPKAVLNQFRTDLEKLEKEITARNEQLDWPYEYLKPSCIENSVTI"},
  "source": "PubChem BioAssay AID1671190",
  "about": "(National Center for Advancing Translational Sciences (NCATS), 2021)",
  "note": "About 6,100 (1.1%) of roughly 580,000 compounds were called active. Inconclusive means that the source gave no clear call. Such entries were picked first, then a sample of the others. Calls follow the shape of the dose curve; as a rule, active = well fitted inhibition curve with a large enough effect; inconclusive = small, poorly fitted or top-dose-only effect, or another doubt; inactive = no such curve, though single readings can be large or run the other way. A potency beside an inconclusive call is a rough fit, not a confirmed value. % is scaled to controls: 0 for no effect and ±100 for the full control effect; potency is read from the fitted curve at half-maximal effect.",
  "data": [
    {"molecular_target": "Polyunsaturated fatty acid lipoxygenase ALOX12 (Homo sapiens) (UniProt P18054)", "test": "Primary qHTS assay for inhibitors of human arachidonate 12S-lipoxygenase (ALOX12): Round 2", "details": "purified 12hLO, xylenol orange hydroperoxide absorbance; activity change, negative = inhibition: at 108 µM (top of the series) unless noted", "method_in_brief": "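Purified human 12hLO (150 nM final) in 25 mM Hepes, 0.01% Triton X-100, pH 7.0 was preincubated 15 min at room temperature with compound. Then 40 uM arachidonic acid was added, 30 min. Hydroperoxide was read by Fe-XO absorbance ratio 573/405 nm.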", "values": [
      {"compound": "C/C(=N\\NC(=O)CCC(=O)NCc1ccccc1)c1ccc(Cl)cc1", "Potency": "inactive"},
      {"compound": "NCCO[C@H]1C[C@@H](O)C12CCN(S(=O)(=O)c1cccnc1)CC2", "Potency": "inconclusive: 20 µM [inhibitor, full curve]"},
      {"compound": "O=C1C(=Cc2cn(-c3ccccc3)nc2-c2ccc(OCc3ccccc3F)cc2)SC(=S)N1CCS(=O)(=O)O", "Potency": "inconclusive: 31.6 µM [inhibitor, partial curve, poor fit]"},
      {"compound": "C/C(=N\\O)C(=O)NCCN(C)C", "Potency": "inconclusive: 7.08 µM [inhibitor, partial curve, poor fit]"},
      {"compound": "CC(=O)c1c(NCCc2ccccc2)nc(=S)n(-c2ccccc2)c1C", "Potency": "inconclusive: 44.7 µM [inhibitor, partial curve, poor fit]"},
      {"compound": "C[C@]1(CO)[C@H]2Cc3sc(NC(=O)c4ccc(F)cc4)nc3[C@@H](CC(=O)NCc3ccccc3)[C@]2(C)CC[C@H]1O", "Potency": "inactive"},
      {"compound": "CC(C)Cn1c(SCC(=O)NCc2ccco2)nnc1-c1ccncc1", "Potency": "inconclusive: 3.16 µM [inhibitor, full curve, poor fit]"},
      {"compound": "CC(C)(C)c1cc(NS(=O)(=O)c2ccc(Br)s2)no1", "Potency": "inconclusive: 39.8 µM [inhibitor, partial curve, poor fit]"},
      {"compound": "COc1cc(/C=C2/C(=O)NN(c3ccc(Cl)cc3)C2=O)ccc1OC(=O)c1ccco1", "Potency": "active: 8.91 µM"},
      {"compound": "O=C1N(O)C2(C=CCCC2)/C(=N\\O)C12CCCCC2", "note": "(centres undefined)", "Potency": "inconclusive: 6.31 µM [inhibitor, full curve, poor fit]"},
      {"compound": "CCC1CCCCN1C(=O)CN1C(=O)N(c2c(C)cccc2C)S(=O)(=O)c2ccccc21", "note": "(centres undefined)", "Potency": "inactive"},
      {"compound": "Oc1ccc(C=NNC(=S)Nc2ccc(F)cc2)c(O)c1", "Potency": "active: 39.8 µM"},
      {"compound": "COc1cc2c(cc1OC)CN(C(=O)CCOc1ccccc1C)CC2", "Potency": "inactive"},
      {"compound": "COc1ccc([C@H]2CC(=O)c3c(O)cc(O)cc3O2)cc1O", "Potency": "inconclusive: 22.4 µM [inhibitor, partial curve, poor fit]"},
      {"compound": "Cc1ccc(NC(=O)C(C#N)=C2CCC(C)CC2)cc1", "note": "(centres undefined)", "Potency": "inconclusive: 63.1 µM [inhibitor, partial curve, poor fit]"},
      {"compound": "Cc1ccc(/C([O-])=C(/C(=S)NCc2ccc3c(c2)OCO3)[n+]2ccc(N(C)C)cc2)c(C)c1", "Potency": "inactive"},
      {"compound": "CC(C)(C)c1csc(N/N=C/c2ccc(O)cc2)n1", "Potency": "inconclusive: 70.8 µM [inhibitor, partial curve, poor fit]"},
      {"compound": "CCCCN(CCCNC(=O)c1cc(Nc2ccc(OC)c(OC)c2)nc2ccccc12)c1ccccc1", "Potency": "inconclusive: 126 µM [inhibitor, partial curve, poor fit]"},
      {"compound": "CCCCCCn1c(N2CCCC2)nc2c1c(=O)n(C)c(=O)n2C", "Potency": "inactive"},
      {"compound": "CCOC(=O)c1c(CN2CCOCC2)n(C)c2cc(Br)c(O)c(CN(C)C)c12", "Potency": "inconclusive: 35.5 µM [inhibitor, single point]"},
      {"compound": "Cc1nc(C2CCN(C(=O)[C@@H](N)[C@@H](C)O)CC2)cc(N2CCOCC2)n1", "Potency": "inactive"},
      {"compound": "CC(=O)O[C@@]12CO[C@@H]1C[C@H](O)[C@@]1(C)C(=O)[C@H](O)C3=C(C)[C@@H](OC(=O)[C@H](O)[C@@H](NC(=O)OC(C)(C)C)c4ccccc4)C[C@@](O)([C@@H](OC(=O)c4ccccc4)[C@H]21)C3(C)C", "activity change, negative = inhibition": "inactive: -6.17% [at 22.9 µM]"},
      {"compound": "CCN(CC)CCN(C(=O)c1cc2ccccc2cc1OC)c1nc2ccc(F)cc2s1", "Potency": "inconclusive: 44.7 µM [inhibitor, partial curve, poor fit]"},
      {"compound": "CC(C)(C)c1ccc(/C=C(\\C#N)C(=O)NC2CC2)cc1", "Potency": "inconclusive: 112 µM [inhibitor, partial curve, poor fit]"},
      {"compound": "COc1ccc(NC(=S)NC(NC(=O)c2ccc(Cl)cc2Cl)C(Cl)(Cl)Cl)c([N+](=O)[O-])c1", "note": "(centres undefined)", "Potency": "inconclusive: 3.98 µM [inhibitor, full curve, poor fit]"},
      {"compound": "CC(C)c1ccc(C2C3=C(COC3=O)Nc3c2c(=O)n(C)c(=O)n3C)cc1", "note": "(centres undefined)", "Potency": "inactive"},
      {"compound": "Cc1cc(C)c(S(=O)(=O)NCC(c2ccc(N(C)C)cc2)N2CCOCC2)c(C)c1", "note": "(centres undefined)", "Potency": "inconclusive: 44.7 µM [inhibitor, partial curve, poor fit]"},
      {"compound": "COc1ccc(C2=C(Nc3ccc(C)cc3C)c3ccccc3C2=O)cc1", "activity change, negative = inhibition": "inconclusive: -58.1% [inhibitor]"},
      {"compound": "CC(C)NC(=O)c1ccc(I)cc1", "Potency": "inconclusive: 31.6 µM [inhibitor, partial curve, poor fit]"},
      {"compound": "CC(=O)COC(=O)c1ccc2noc(-c3ccccc3)c2c1", "Potency": "inconclusive: 63.1 µM [inhibitor, partial curve, poor fit]"},
      {"compound": "CCc1ccccc1N/C=C(\\C#N)c1nc(-c2ccc(C)c(C)c2)cs1", "Potency": "inconclusive: 126 µM [inhibitor, single point]"},
      {"compound": "CCC(c1nnnn1CCOC)N(Cc1cc2cc(C)c(C)cc2[nH]c1=O)CC1CCCO1", "note": "(centres undefined)", "Potency": "inactive"},
      {"compound": "COc1ccc(COC(=O)C2=C(C)NC3=C(C(=O)CCC3)C2c2cccc(Cl)c2)cc1", "note": "(centres undefined)", "Potency": "inconclusive: 44.7 µM [inhibitor, full curve, poor fit]"},
      {"compound": "Cc1ccc(-c2noc(CNc3ccc(Cl)c(Cl)c3)n2)cc1", "Potency": "inconclusive: 0.199 µM [inhibitor, full curve, poor fit]"},
      {"compound": "Cc1cc(-c2[nH]nc3c2C(c2ccsc2)C(C#N)=C(N)O3)c(C)s1", "note": "(centres undefined)", "Potency": "inconclusive: 44.7 µM [inhibitor, partial curve, poor fit]"},
      {"compound": "CCOC(=O)/C(=C/c1ccc(OC(=O)c2ccncc2)cc1)C(C)=O", "Potency": "inactive"},
      {"compound": "COC(=O)COc1ccc(S(=O)(=O)Nc2cc([N+](=O)[O-])ccc2C)cc1", "Potency": "inactive"},
      {"compound": "COc1ccc2sc3c(=O)[nH]c4ccccc4c3c2c1", "Potency": "inactive"},
      {"compound": "FC(F)(F)c1ccc(NC(=S)NCc2ccccc2)cc1", "Potency": "inconclusive: 44.7 µM [inhibitor, partial curve, poor fit]"},
      {"compound": "COc1ccc(C=C2SC(=S)N(CCCC(=O)Nc3ccc(C(=O)O)c(O)c3)C2=O)cc1OC", "Potency": "inconclusive: 44.7 µM [inhibitor, partial curve, poor fit]"},
      {"compound": "CCCCNS(=O)(=O)c1ccc(NC(=O)C2c3ccccc3Oc3ccccc32)cc1", "Potency": "inconclusive: 50.1 µM [inhibitor, full curve, poor fit]"},
      {"compound": "COc1cccc(NC(=S)NC2CC3CCCC(C2)N3CC(C)C)c1", "note": "(centres undefined)", "Potency": "inactive"},
      {"compound": "COC(=O)c1ccc(CNC(=O)c2cc(-c3ccc(C)cc3)nc3ccccc23)cc1", "Potency": "inconclusive: 2.51 µM [inhibitor, full curve]"},
      {"compound": "COc1ccc2[nH]c(C(=O)O)c(CCNC(C)=O)c2c1", "Potency": "inconclusive: 50.1 µM [inhibitor, partial curve, poor fit]"},
      {"compound": "NC(N)=NN=Cc1ccnc2ccccc12", "Potency": "inconclusive: 44.7 µM [inhibitor, partial curve]"},
      {"compound": "CC(=O)c1ccc(S(=O)(=O)Nc2ccc(-c3ccc4nnc(C)n4n3)cc2)cc1", "Potency": "inactive"},
      {"compound": "O=C(NCC(c1ccco1)N1CCCC1)c1ccccc1Sc1ccc(C(F)(F)F)cc1[N+](=O)[O-]", "note": "(centres undefined)", "Potency": "inconclusive: 56.2 µM [inhibitor, partial curve, poor fit]"},
      {"compound": "Cc1ccc(Nc2c(-c3ccccn3)nc3cc(C)ccn23)cc1", "Potency": "inconclusive: 126 µM [inhibitor, single point]"},
      {"compound": "O=C(Nc1ccc2c(c1)OCCO2)C(c1ccccc1F)n1c(=O)c(-c2cc3ccccc3[nH]2)nc2ccccc21", "note": "(centres undefined)", "Potency": "inconclusive: 89.1 µM [inhibitor, single point]"},
      {"compound": "COC(=O)c1ccc(NC(=O)COc2cc(C)c(Cl)c(C)c2)cc1", "Potency": "inactive"},
      {"compound": "Oc1cccc(C=Nc2cccc3ccccc23)c1O", "Potency": "inconclusive: 1 µM [inhibitor, full curve, poor fit]"},
      {"compound": "NC(=O)CC(NSc1ccccc1[N+](=O)[O-])C(=O)O", "note": "(centres undefined)", "Potency": "inconclusive: 50.1 µM [inhibitor, partial curve, poor fit]"},
      {"compound": "CCOc1ccc(/C=C/C2=Cc3c(sc(NC(=O)CSc4n[nH]c(N)n4)c3C#N)C(C)(C)C2)cc1", "Potency": "inconclusive: 8.91 µM [inhibitor, full curve, poor fit]"},
      {"compound": "O=C(/C=C/c1cccs1)Nc1ccncc1", "Potency": "inactive"},
      {"compound": "COc1ccc(OC)c(NC(=O)c2nc3ccccc3nc2N2CCCC2)c1", "Potency": "inactive"},
      {"compound": "O=C(c1cccnc1)N(Cc1ccccc1)Cc1cc2ccccc2[nH]c1=O", "Potency": "inactive"},
      {"compound": "O=C(NCCCN1CCOCC1)c1ccc2c(c1)N(Cc1cccc(Cl)c1)C(=O)c1ccccc1S2", "Potency": "inconclusive: 50.1 µM [inhibitor, partial curve, poor fit]"},
      {"compound": "Cc1cc(Nc2cccc(C(F)(F)F)c2)nc2ccc(NC(=O)c3cccc(Cl)c3)cc12", "Potency": "inactive"},
      {"compound": "Cc1nc(CCNS(=O)(=O)c2c(C)nn(C)c2C)no1", "Potency": "inactive"},
      {"compound": "COc1cccc(NC(=S)NN=C2CCC(C(C)(C)C)CC2)c1", "note": "(centres undefined)", "Potency": "inconclusive: 50.1 µM [inhibitor, partial curve, poor fit]"},
      {"compound": "O=c1c2c(nc3c(-c4ccccc4)c[nH]n13)CCCC2", "Potency": "inconclusive: 44.7 µM [inhibitor, single point]"},
      {"compound": "CCN1CCN(C(=O)C2CCN(Cc3cc(Cl)ccc3O)CC2)CC1", "Potency": "inconclusive: 1.78 µM [inhibitor, full curve, poor fit]"},
      {"compound": "COc1ccc([C@H]2CC(=O)C=C(c3ccc4[nH]ccc4c3)C2)cc1OC", "Potency": "inconclusive: 89.1 µM [inhibitor, single point]"},
      {"compound": "CCNC(=O)CCS(=O)(=O)c1ccc2ccccc2c1", "Potency": "inconclusive: 44.7 µM [inhibitor, partial curve, poor fit]"}
    ]}
  ]
}
